# Experimental data published in US6465477B1, “Stable pharmaceutical composition” (Kowa Company, Ltd., priority 1997, dated 2002).
# At least one structure is not confirmed: it was looked up by name or label, or the drawing left a doubt.
# Test: Decomposition products of NK-104 and fluvastatin in aqueous solution of pH 3, analyzed by HPLC
# Format: physicochemical
# Details: aqueous solution pH 3, 40° C.
# Protocol: Decomposition products of NK-104 were analyzed by HPLC after incubation for two days at 40° C. in aqueous solution of pH 3. […] The decomposition products of fluvastatin were also analyzed for comparison.
# The conditions under which NK-104 and Fluvastatine decomposition products were analyzed are as follows:
# HPLC system: Type LC-10 (Shimadz, Japan)
# Column: DEVELOSIL ODS-HG-5 (NOMURA CHEM., Japan)
# Mobil Phase: MeOH/0.02 mol/L phosphate buffer (pH 3)=7/3
# Sample: NK-104 or fluvastatin/pH 3/40° C., 2 days
# Detector: SPD-MLOAVP, UV 245 mm
compound,measurement,setting,value
CC(C)n1c(/C=C/C(O)CC(O)CC(=O)O)c(-c2ccc(F)cc2)c2ccccc21 (centres unmarked) [fluvastatin],Quantity of decomposition products,2 days,comparatively large quantities of different types of decomposition products
same,Decomposition products (types),two days,many types of products
